Assay results as given in article PMC4831018.
These are yes or no findings as the source states them, for the method shown. Binding seen in cells or lysates may run through a third protein. Binding calls can cover weak binding; strength is not graded here.

Chains of the proteins cited; added tags and fusions are not shown. Lines headed by an entry give the natural chain unless they say otherwise; changes in a name come on top.
UniProt B9PY91: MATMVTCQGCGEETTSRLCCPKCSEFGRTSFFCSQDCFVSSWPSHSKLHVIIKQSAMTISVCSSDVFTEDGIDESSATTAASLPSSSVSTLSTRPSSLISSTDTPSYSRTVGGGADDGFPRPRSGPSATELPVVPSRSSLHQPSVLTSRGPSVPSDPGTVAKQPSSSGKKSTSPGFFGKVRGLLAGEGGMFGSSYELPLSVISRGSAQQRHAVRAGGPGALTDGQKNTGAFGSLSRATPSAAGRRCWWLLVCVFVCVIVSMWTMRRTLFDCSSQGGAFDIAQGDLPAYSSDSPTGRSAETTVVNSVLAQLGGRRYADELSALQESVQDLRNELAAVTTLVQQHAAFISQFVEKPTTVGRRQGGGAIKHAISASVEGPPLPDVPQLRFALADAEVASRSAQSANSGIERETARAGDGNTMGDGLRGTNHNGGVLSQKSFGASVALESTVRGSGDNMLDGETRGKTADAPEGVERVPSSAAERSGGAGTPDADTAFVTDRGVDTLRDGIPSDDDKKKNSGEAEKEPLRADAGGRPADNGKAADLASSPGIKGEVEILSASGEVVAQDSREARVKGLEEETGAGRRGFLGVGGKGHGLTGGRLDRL

Molecular target: TgVps29-cMyc (Toxoplasma gondii)
Test: co-IP; reverse immunoprecipitation from total detergent extracts of knock-in TgVps35-HA, TgVps29-cMyc or TgVps26-HA parasites; western blot; negative control with naïve sera

With TgHP12 (from UniProt B9PY91) the binding was “binds”.
